# The supplement of paper PMC10849652
# By UniProt entry, the sequences of proteins in these tests, tags left out. Where a name states a change or a piece, a line headed by the entry shows the natural chain unless it says otherwise.
# UniProt Q8NBT2: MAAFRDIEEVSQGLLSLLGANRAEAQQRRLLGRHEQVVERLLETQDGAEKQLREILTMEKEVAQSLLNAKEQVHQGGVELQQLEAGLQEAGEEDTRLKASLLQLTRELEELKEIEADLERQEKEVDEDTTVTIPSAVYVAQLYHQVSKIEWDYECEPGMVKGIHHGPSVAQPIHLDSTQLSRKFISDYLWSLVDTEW
# UniProt P08240: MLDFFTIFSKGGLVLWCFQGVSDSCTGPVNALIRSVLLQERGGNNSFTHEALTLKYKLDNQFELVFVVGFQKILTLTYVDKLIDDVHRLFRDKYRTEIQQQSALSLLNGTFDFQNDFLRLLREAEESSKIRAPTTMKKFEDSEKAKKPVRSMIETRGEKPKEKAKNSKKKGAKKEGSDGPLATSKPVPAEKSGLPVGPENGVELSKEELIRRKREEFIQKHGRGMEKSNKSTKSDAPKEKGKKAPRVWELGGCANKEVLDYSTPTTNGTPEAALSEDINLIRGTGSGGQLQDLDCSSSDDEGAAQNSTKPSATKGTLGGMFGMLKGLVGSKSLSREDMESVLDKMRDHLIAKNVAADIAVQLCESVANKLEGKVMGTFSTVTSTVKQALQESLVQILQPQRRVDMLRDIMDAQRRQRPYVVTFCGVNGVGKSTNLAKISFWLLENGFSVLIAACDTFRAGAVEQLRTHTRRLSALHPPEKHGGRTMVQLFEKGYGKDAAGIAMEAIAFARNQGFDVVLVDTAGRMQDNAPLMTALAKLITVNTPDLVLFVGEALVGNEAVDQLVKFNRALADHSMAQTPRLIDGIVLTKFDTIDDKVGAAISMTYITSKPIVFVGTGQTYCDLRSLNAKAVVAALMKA
# UniProt P19623: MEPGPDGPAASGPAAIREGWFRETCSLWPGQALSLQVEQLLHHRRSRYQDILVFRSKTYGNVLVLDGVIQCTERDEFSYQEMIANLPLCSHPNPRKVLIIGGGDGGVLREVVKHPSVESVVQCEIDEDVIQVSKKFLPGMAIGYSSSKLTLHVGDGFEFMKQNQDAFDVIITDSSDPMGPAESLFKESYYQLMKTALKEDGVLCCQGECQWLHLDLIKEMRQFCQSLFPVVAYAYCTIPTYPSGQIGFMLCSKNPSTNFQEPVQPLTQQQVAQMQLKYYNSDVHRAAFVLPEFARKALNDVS
# UniProt Q9BRL6: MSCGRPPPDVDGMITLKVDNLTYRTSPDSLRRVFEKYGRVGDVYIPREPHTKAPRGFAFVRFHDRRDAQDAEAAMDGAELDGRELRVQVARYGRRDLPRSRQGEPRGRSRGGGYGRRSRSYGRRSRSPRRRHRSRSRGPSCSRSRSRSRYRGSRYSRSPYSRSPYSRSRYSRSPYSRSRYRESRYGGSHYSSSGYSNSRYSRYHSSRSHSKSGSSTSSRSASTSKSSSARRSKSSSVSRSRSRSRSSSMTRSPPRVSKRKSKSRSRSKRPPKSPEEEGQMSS
# UniProt P16150: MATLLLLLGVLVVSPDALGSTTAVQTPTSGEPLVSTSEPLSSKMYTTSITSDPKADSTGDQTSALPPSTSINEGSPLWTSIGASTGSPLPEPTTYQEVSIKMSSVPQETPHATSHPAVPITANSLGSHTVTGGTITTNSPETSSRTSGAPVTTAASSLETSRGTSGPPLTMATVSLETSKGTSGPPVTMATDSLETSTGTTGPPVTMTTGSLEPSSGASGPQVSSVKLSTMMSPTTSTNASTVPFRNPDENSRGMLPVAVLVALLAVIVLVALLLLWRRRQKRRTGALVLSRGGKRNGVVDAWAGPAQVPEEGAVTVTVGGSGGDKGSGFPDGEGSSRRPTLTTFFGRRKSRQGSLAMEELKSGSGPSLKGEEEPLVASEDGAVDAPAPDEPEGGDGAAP
# UniProt P09132: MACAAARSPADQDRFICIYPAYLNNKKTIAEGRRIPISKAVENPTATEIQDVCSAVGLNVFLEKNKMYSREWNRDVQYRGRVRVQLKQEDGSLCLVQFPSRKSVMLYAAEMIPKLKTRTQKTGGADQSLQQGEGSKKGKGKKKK
# UniProt Q9H254, whole entry, looked up: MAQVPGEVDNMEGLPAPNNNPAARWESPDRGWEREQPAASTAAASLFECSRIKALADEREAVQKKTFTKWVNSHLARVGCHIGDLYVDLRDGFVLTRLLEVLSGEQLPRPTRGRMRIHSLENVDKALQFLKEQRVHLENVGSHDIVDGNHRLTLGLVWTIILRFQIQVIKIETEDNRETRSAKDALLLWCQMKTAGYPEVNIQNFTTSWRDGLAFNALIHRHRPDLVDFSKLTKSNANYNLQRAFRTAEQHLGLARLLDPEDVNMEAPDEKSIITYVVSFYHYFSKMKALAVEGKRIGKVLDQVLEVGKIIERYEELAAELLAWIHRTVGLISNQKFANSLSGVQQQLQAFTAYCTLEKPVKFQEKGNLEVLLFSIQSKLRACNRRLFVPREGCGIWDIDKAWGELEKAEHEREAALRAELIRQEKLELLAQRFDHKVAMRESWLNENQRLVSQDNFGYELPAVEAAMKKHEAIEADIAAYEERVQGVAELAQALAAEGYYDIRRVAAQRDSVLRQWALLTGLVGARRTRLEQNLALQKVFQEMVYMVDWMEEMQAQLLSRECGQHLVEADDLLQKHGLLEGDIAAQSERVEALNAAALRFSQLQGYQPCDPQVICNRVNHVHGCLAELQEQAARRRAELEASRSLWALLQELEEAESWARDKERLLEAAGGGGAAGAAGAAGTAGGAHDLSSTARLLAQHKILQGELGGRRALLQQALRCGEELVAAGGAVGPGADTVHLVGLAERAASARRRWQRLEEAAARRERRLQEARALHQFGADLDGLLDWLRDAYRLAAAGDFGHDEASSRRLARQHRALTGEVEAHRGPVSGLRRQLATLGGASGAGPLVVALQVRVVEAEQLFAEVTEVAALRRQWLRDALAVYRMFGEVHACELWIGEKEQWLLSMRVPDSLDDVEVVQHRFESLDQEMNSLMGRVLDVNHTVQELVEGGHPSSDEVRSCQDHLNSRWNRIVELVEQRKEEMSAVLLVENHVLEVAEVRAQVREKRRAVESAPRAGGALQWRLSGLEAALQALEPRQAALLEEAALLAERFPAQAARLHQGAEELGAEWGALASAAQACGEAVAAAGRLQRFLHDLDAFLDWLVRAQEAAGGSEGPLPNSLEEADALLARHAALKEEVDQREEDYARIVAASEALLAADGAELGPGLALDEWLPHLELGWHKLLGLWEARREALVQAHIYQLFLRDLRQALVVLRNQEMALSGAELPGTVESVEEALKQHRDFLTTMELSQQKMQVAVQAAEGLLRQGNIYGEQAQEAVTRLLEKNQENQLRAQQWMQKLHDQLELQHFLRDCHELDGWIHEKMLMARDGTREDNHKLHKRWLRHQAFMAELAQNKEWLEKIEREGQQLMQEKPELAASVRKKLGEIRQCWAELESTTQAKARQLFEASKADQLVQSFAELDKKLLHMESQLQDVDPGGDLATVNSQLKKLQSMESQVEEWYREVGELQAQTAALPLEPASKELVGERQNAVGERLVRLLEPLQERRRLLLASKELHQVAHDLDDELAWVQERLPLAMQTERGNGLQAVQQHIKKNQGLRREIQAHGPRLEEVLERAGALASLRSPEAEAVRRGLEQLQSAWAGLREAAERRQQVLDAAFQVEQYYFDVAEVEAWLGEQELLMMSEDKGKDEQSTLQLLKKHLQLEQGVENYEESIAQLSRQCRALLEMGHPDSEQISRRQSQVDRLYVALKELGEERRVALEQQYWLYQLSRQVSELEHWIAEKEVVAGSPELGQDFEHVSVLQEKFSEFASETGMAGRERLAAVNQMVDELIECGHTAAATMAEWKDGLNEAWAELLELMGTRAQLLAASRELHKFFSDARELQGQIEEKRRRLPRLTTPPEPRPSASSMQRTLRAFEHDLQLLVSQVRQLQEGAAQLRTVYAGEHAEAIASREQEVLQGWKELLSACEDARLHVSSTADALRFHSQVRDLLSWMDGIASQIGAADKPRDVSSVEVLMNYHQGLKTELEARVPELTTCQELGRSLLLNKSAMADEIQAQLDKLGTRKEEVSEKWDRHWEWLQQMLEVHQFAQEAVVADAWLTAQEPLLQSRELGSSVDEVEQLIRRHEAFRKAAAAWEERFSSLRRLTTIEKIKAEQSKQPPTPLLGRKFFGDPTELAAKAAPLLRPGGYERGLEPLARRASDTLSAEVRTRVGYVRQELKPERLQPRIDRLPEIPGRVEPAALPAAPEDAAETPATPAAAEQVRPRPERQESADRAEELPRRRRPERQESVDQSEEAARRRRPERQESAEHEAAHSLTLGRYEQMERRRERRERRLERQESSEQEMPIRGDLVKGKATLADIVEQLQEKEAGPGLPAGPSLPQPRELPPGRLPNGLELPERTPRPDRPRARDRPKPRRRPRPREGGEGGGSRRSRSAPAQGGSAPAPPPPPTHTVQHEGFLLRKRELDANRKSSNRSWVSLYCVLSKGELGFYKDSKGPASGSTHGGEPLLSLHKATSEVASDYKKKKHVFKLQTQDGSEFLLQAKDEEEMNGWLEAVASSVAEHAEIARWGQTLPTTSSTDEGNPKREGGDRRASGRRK
# UniProt Q15532, whole entry, looked up: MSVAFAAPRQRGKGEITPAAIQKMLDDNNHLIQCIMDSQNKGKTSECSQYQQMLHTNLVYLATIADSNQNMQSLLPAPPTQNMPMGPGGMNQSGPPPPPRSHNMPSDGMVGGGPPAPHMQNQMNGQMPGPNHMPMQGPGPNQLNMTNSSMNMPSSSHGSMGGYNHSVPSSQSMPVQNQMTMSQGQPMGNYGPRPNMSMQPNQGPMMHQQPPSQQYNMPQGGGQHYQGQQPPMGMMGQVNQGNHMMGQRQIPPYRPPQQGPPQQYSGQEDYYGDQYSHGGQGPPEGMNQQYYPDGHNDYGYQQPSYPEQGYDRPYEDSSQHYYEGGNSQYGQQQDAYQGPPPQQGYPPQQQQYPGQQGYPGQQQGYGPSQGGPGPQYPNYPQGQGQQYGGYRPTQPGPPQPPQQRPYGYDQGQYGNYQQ
# UniProt Q7Z699: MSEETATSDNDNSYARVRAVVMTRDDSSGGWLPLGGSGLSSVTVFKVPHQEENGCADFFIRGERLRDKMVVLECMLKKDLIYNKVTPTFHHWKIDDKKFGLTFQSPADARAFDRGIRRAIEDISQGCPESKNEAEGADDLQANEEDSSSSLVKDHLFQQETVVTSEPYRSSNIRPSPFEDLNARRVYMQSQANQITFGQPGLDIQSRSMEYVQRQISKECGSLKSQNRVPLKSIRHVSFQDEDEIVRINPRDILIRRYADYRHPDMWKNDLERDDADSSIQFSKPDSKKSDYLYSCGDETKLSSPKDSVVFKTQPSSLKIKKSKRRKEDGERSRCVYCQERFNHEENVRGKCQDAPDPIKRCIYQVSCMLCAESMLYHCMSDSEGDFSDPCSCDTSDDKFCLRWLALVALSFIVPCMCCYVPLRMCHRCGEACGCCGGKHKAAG
# UniProt P40763, whole entry, looked up: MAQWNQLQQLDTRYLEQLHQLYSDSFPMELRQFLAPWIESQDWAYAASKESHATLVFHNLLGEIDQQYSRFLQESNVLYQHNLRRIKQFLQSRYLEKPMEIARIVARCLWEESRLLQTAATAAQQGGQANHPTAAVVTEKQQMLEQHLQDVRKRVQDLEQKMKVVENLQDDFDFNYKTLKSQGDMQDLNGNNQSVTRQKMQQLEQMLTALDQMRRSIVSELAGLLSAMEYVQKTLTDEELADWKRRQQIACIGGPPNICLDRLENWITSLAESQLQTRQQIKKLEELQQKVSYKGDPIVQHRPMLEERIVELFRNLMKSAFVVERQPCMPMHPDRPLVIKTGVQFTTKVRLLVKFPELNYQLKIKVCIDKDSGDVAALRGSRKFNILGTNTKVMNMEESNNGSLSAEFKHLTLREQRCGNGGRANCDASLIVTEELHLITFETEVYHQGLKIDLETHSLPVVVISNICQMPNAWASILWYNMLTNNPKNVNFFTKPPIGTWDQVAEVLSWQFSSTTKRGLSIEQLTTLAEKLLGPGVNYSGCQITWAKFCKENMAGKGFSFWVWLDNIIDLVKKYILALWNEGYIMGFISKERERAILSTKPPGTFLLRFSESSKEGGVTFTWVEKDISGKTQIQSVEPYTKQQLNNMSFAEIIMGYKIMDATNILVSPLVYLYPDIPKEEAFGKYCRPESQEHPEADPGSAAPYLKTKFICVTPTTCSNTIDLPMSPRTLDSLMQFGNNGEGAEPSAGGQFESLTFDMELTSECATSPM
# UniProt P35325: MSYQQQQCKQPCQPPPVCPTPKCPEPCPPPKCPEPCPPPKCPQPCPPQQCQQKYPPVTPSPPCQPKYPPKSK
# UniProt O76061, whole entry, looked up: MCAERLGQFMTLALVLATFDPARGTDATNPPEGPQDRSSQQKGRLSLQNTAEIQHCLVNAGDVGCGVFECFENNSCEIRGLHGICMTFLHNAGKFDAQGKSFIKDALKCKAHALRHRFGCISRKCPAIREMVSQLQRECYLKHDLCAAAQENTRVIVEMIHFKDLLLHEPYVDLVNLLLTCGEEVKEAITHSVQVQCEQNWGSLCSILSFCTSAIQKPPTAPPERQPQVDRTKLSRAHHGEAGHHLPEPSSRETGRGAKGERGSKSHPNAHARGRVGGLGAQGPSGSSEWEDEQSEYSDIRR
# This is one part of the list.
# Tests used:
# Assay in all cases: log2 fold change, soluble protein after heating vs DMSO (PISA); higher = thermal stabilisation; K562 lysate, 10 uM; active = over 0.2 and 3.5 SD of the protein, either way, in both replicates (recomputed)
# lapatinib = compound: CS(=O)(=O)CCNCc1ccc(-c2ccc3ncnc(Nc4ccc(OCc5cccc(F)c5)c(Cl)c4)c3c2)o1 [lapatinib]
# In short: (§1)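 Pellets of K562 cells were dounce-homogenised in PBS pH 7.4 with 1 mM MgCl2, and the crude extract was held at 1 mg/mL protein for a 30 min treatment with 10 μM compound. Aliquots were heated for 3 min over 48°C-58°C and pooled before NP-40 was added to 0.5% at 4°C. The supernatant from 21,000xg for 90 min was quantified by TMTpro 16plex LC-MS/MS with channel sums equalised. Values are reported from duplicates as log-two fold change in thermal stability relative to solvent controls.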
# pictilisib = compound: CS(=O)(=O)N1CCN(Cc2cc3nc(-c4cccc5[nH]ncc45)nc(N4CCOCC4)c3s2)CC1 [pictilisib]
# In short: as §1
# crizotinib = compound: C[C@@H](Oc1cc(-c2cnn(C3CCNCC3)c2)cnc1N)c1c(Cl)ccc(F)c1Cl [crizotinib]
# In short: as §1
# [1] = compound: C[C@H](C1=CC=C(C=C1)C(=O)NC2=C3C=CNC3=NC=C2)N
# In short: as §1
# duvelisib = compound: C[C@H](Nc1ncnc2nc[nH]c12)c1cc2cccc(Cl)c2c(=O)n1-c1ccccc1 [duvelisib]
# In short: as §1
# gandotinib = compound: Cc1cc(Nc2cc(CN3CCOCC3)c3nc(C)c(Cc4ccc(Cl)cc4F)n3n2)n[nH]1 [gandotinib]
# In short: as §1
# tozasertib = compound: Cc1cc(Nc2cc(N3CCN(C)CC3)nc(Sc3ccc(NC(=O)C4CC4)cc3)n2)n[nH]1 [tozasertib]
# In short: as §1
# doramapimod = compound: Cc1ccc(-n2nc(C(C)(C)C)cc2NC(=O)Nc2ccc(OCCN3CCOCC3)c3ccccc23)cc1 [doramapimod]
# In short: as §1
# bafetinib = compound: Cc1ccc(NC(=O)c2ccc(CN3CC[C@H](N(C)C)C3)c(C(F)(F)F)c2)cc1Nc1nccc(-c2cncnc2)n1 [bafetinib]
# In short: as §1
# [2] = compound: Cc1cccc(CC(=O)N2CCc3c2ccc(-c2cn(C)c4ncnc(N)c24)c3F)n1
# In short: as §1
Target,log2 fold change (lapatinib),log2 fold change (pictilisib),log2 fold change (crizotinib),log2 fold change [1],log2 fold change (duvelisib),log2 fold change (gandotinib),log2 fold change (tozasertib),log2 fold change (doramapimod),log2 fold change (bafetinib),log2 fold change [2]
SPTAN1 (UniProt Q13813),inactive: -0.015,inactive: -0.02,inactive: 0.008,inactive: -0.043,inactive: -0.018,inactive: 0.019,inactive: 0.01,inactive: 0.009,inactive: 0.002,inactive: 0.007
STARD10 (UniProt Q9Y365),inactive: 0,inactive: -0.036,inactive: -0.055,inactive: 0.077,inactive: -0.012,inactive: -0.185,inactive: -0.045,inactive: -0.049,inactive: -0.044,inactive: -0.09
SRSF11 (UniProt Q05519),inactive: -0.029,inactive: 0.019,inactive: 0.051,inactive: -0.01,inactive: -0.012,inactive: -0.046,inactive: 0.002,inactive: -0.014,inactive: 0.008,inactive: -0.004
SPPL2B (UniProt Q8TCT7),inactive: -0.068,inactive: -0.113,inactive: 0.028,inactive: -0.043,inactive: 0.081,inactive: 0.072,inactive: -0.01,inactive: -0.012,inactive: -0.045,inactive: -0.017
SPC24 (UniProt Q8NBT2),inactive: 0.024,inactive: 0.043,inactive: 0.003,inactive: -0.035,inactive: -0.005,inactive: -0.025,inactive: 0.004,inactive: 0.004,inactive: -0.075,inactive: 0
SRPRA (UniProt P08240),inactive: -0.011,inactive: 0.018,inactive: 0.152,inactive: -0.019,inactive: -0.04,inactive: -0.106,inactive: 0.026,inactive: -0.007,inactive: 0.018,inactive: 0.03
SRSF3 (UniProt P84103),inactive: -0.03,inactive: 0.019,inactive: 0.025,inactive: -0.058,inactive: 0.04,inactive: -0.057,inactive: 0.038,inactive: -0.007,inactive: 0.038,inactive: 0.057
SRM (UniProt P19623),inactive: -0.015,inactive: -0.013,inactive: -0.048,inactive: -0.032,active: 0.716,inactive: -0.036,inactive: 0.01,inactive: -0.017,inactive: -0.009,inactive: -0.033
SRSF8 (UniProt Q9BRL6),inactive: -0.027,inactive: -0.01,inactive: 0.03,inactive: -0.145,inactive: 0.007,inactive: -0.055,inactive: 0.029,inactive: 0.017,inactive: -0.004,inactive: 0.113
SPTLC1 (UniProt O15269),inactive: -0.018,inactive: 0.021,inactive: -0.092,inactive: -0.042,inactive: -0.002,inactive: 0.002,inactive: 0.011,inactive: 0.009,inactive: -0.032,inactive: 0.049
SRP14 (UniProt P37108),inactive: -0.006,inactive: 0.019,inactive: 0.018,inactive: -0.079,inactive: 0.007,inactive: 0.012,inactive: -0.015,inactive: 0.013,inactive: 0.02,inactive: 0.034
SPATA33 isoform 2 (UniProt Q96N06),inactive: -0.019,inactive: -0.017,,inactive: 0.177,inactive: -0.17,inactive: -0.333,inactive: 0.038,,inactive: 0.108,inactive: 0.326
SPN (UniProt P16150),inactive: 0.017,inactive: -0.009,inactive: 0.034,inactive: 0.009,inactive: -0.026,inactive: 0.003,inactive: 0.034,inactive: -0.007,inactive: -0.033,inactive: -0.007
SRP19 (UniProt P09132),inactive: 0.011,inactive: 0.035,inactive: -0.073,inactive: 0.019,inactive: 0.036,inactive: -0.036,inactive: -0.035,inactive: 0.023,inactive: 0.085,inactive: 0.057
SPTBN4 (UniProt Q9H254),inactive: 0.016,inactive: 0.125,inactive: 0.047,inactive: -0.095,inactive: 0.087,inactive: 0.123,inactive: -0.025,inactive: -0.025,inactive: 0.04,inactive: 0.111
SRC isoform 2 (UniProt P12931),inactive: -0.001,inactive: -0.078,,inactive: 0.151,inactive: 0.001,inactive: 0.061,inactive: 0.098,,inactive: -0.153,inactive: -0.015

# Some of the entries above, reformatted:
Target	log2 fold change (lapatinib)	log2 fold change (pictilisib)	log2 fold change (crizotinib)	log2 fold change [1]	log2 fold change (duvelisib)	log2 fold change (gandotinib)	log2 fold change (tozasertib)	log2 fold change (doramapimod)	log2 fold change (bafetinib)	log2 fold change [2]
SPPL2B (UniProt Q8TCT7)	inactive: -0.068	inactive: -0.113	inactive: 0.028	inactive: -0.043	inactive: 0.081	inactive: 0.072	inactive: -0.01	inactive: -0.012	inactive: -0.045	inactive: -0.017
SRSF3 (UniProt P84103)	inactive: -0.03	inactive: 0.019	inactive: 0.025	inactive: -0.058	inactive: 0.04	inactive: -0.057	inactive: 0.038	inactive: -0.007	inactive: 0.038	inactive: 0.057

# (continued)

Target,log2 fold change (lapatinib),log2 fold change (pictilisib),log2 fold change (crizotinib),log2 fold change [1],log2 fold change (duvelisib),log2 fold change (gandotinib),log2 fold change (tozasertib),log2 fold change (doramapimod),log2 fold change (bafetinib),log2 fold change [2]
SSX5 isoform 2 (UniProt O60225),inactive: 0.042,inactive: 0.082,,inactive: -0.476,,inactive: 0.092,inactive: 0.085,,inactive: -0.04,inactive: 0.183
SPP2 (UniProt Q13103),inactive: -0.05,inactive: -0.009,,inactive: 0.025,,inactive: 0.047,,,inactive: 0.05,inactive: -0.079
SSBP4 (UniProt Q9BWG4),inactive: 0.002,inactive: -0.053,inactive: 0.032,inactive: 0.079,,inactive: 0.061,inactive: -0.149,inactive: -0.188,inactive: 0.043,inactive: -0.006
STAT1 (UniProt P42224),inactive: -0.011,inactive: 0.001,inactive: -0.049,inactive: -0.044,inactive: -0.044,inactive: -0.027,inactive: 0.008,inactive: 0.027,inactive: -0.072,inactive: 0.084
SQLE (UniProt Q14534),inactive: -0.056,inactive: -0.04,inactive: -0.057,inactive: -0.025,inactive: -0.057,inactive: -0.028,inactive: 0.068,inactive: -0.035,inactive: -0.047,inactive: 0.031
SRD5A3 (UniProt Q9H8P0),inactive: -0.433,inactive: 0.065,inactive: 0.104,,inactive: 0.056,,inactive: -0.057,inactive: 0.008,inactive: -0.091,
SPINT1 (UniProt O43278),inactive: -0.048,inactive: -0.023,inactive: 0.103,inactive: 0.04,,inactive: 0.009,,inactive: 0.096,inactive: -0.05,inactive: 0.004
SS18 (UniProt Q15532),inactive: 0.039,,inactive: 0.074,inactive: 0.136,inactive: 0.034,inactive: -0.192,inactive: 0.119,inactive: -0.016,,inactive: -0.178
SSH2 (UniProt Q76I76),inactive: -0.132,,inactive: 0.01,inactive: -0.029,inactive: -0.053,inactive: 0.131,inactive: 0.059,inactive: -0.067,,inactive: 0.184
STAM (UniProt Q92783),inactive: 0.088,inactive: -0.007,inactive: 0.043,inactive: -0.032,inactive: 0.007,inactive: 0.038,inactive: -0.015,inactive: -0.006,inactive: 0.05,inactive: -0.008
SPRED1 (UniProt Q7Z699),inactive: 0.098,inactive: -0.176,,inactive: 0.023,inactive: 0.108,inactive: 0.124,inactive: -0.016,,inactive: 0.111,inactive: -0.083
STAT3 isoform 3 (UniProt P40763),inactive: -0.016,inactive: -0.007,inactive: 0.045,inactive: 0,inactive: -0.069,inactive: -0.046,inactive: -0.05,inactive: -0.112,inactive: -0.172,inactive: -0.028
SPRR2B (UniProt P35325),inactive: 0.023,inactive: -0.008,inactive: -0.058,inactive: 0.174,,inactive: 0.93,inactive: 0.17,inactive: 0.099,inactive: 0.122,inactive: -0.14
SQSTM1 (UniProt Q13501),inactive: -0.036,inactive: 0.011,inactive: 0.007,inactive: 0.044,inactive: 0.045,inactive: -0.076,inactive: -0.014,inactive: -0.022,inactive: -0.005,inactive: -0.044
STC2 (UniProt O76061),inactive: 0.063,,inactive: 0.066,inactive: -0.279,inactive: -0.051,inactive: 0.069,inactive: -0.124,inactive: 0.127,,inactive: -0.012
STIL isoform 2 (UniProt Q15468),inactive: 0.01,inactive: -0.018,inactive: 0.013,inactive: -0.045,inactive: -0.011,inactive: 0.035,inactive: 0.12,inactive: 0.018,inactive: -0.105,inactive: 0.031

# Taken from above:
# Entry for SPRED1 (UniProt Q7Z699) under log2 fold change (tozasertib): inactive: -0.016
# Entry for SRD5A3 (UniProt Q9H8P0) under log2 fold change (lapatinib): inactive: -0.433
# Entry for SQLE (UniProt Q14534) under log2 fold change (crizotinib): inactive: -0.057
